From PMC8301015
These are yes or no findings as the source states them, for the method shown. In cells and extracts the contact can be indirect. Here binding means that the protein was enriched with, or labelled near, the bait; the list need not be complete. Sequences can lack the tags named with a protein.

T1: AbxC (atypical BrxC; DR_1832), C-terminal His x 6 tag (Deinococcus radiodurans) (UniProt Q9RTD3)
T1 sequence: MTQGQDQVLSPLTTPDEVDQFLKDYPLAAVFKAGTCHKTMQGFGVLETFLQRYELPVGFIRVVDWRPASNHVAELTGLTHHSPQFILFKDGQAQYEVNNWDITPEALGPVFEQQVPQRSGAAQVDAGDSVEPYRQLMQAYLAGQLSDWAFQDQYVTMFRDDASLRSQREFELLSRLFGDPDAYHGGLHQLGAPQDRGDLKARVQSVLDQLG

B1: transcriptional regulator OxyR (DR_0615), endogenous (protein, UniProt Q9RWQ1 1-317)
chain: MELRHLRHFVALAEEEHFGRAAERVFVVQQALSSSIRNLEEEVGVQLVTRTTRRVQLTPAGEEFLIGARATLAQAAQTVERARRAAQGEVGRLTVGFVSGLAFGGLPEIVRRFRELYPAVSVDLRELTAGEQEAALRGGQIDVGLLLLPVRDPALASRPLWRLPLVAALPAAHPLASRTTLRIGDLSQEDFVFFPRYLRATYFDQVMHWCADAGFTPHVVQEAIEIPTLLSLVAAGVGVFLPIEFFARLALPGVVYRPLEGAPVIEIVAVWRRAAAGEQSTRPTVQAFLQVAERVLSGENGAGEATPLPVLPTEPPR
B2: propionyl-CoA carboxylase (DR_1316), endogenous (enzyme, UniProt Q9RUR6 1-520)
chain: MTQPGIELQELIATMEQRRRKVEEGGGPERQQKQREGGKLTARERIERLLDPGSFLESSTFVEHGRNRLMDGIEAPGEGVVTGSGTIDGRQVFVFSQDFTVLGGSLGKMNASKVTKIMDLAAKTGCPVIGLNDSAGARIQEGVDSLSGYGEIFYRNAVYSGSVPQISAILGPCAGGAVYSPAITDFILMSRGSSYMFITGPEVIKSVTREEVTFDQLGGADVHTRKSGVAHLAYEGDEAVIDGIKDLLGYLPQNAREKAPVKPTSDPADRRNEKLLDIVTPDQRRPYAMQDVIRELVDDGTFLEIQPDWAKNIIVGFARLNGQSVGIVANNPKALSGSLNIDASDKAARFIRTCDCYNVPILTLVDVSGFLPGVQQEYGGIIRHGAKMLYAYAEATVPKVTLITRKSYGGAYLAMNSRDMGADVVYAWPTATVAVMGAEGAANIVYRKDIKDSENPAATRAEKIAEYKEAFDNPYVAAAKGYIDDVIPMEETRERLIRTFEMLANKEETRPFKKHGNIPL
B3: putative homolog of BrxC (YtxJ) (DR_1832; AbxC), endogenous (enzyme, UniProt Q9RTD3 1-211)
chain: T1 sequence
B4: ketol-acid reductoisomerase (DR_1519), endogenous (enzyme, UniProt Q9RU74 1-336)
chain: MSAKMYYDRDVDTQVLENKLIAIIGYGSQAHAHAQNLRDSGFNVVVGLREGSSSKAKAEQAGLRVASIEDATKEADVVMLLIPDEQQPAVYEKSIAPHLTAGKALAFGHGFNVHFGRIKPPADVDVFLVAPKGPGHMLRRVYTDGAGMPGIFAVQQDASGKARDIALAYARGIGCTKAGVLETTFKEETETDLFGEQSVLCGGVTHLIQAGFETLVEAGYQPEIAYFETLHEVKLIVDLIYEKGFEGMRHSISNTAEFGDYVTGPRIITDQTKAEMKNVLGDIQSGKFAESFIKDAESGFPYMNEQRSKMRDHTVEKVGKELRDQMPFINKKELEV
B5: predicted acetyltransferase (DR_0763), endogenous (protein, UniProt Q9RWA6 1-158)
chain: MREAQETGSGLGETLVWKLDDISADFGKVLRDLTRYEPGNELPEGFVHSEYRWLVEGSEYLGRVSIRYSLNDRLREFGGHIGYEIRPSARRKGYGTLILRLALERARELGIDPVLVTCDVDNFGSRGVIEANGGELEGEFEVPQYHDQPIRRYWIRQP
B6: S-adenosylhomocysteine nuclosidase (DR_1451), endogenous (enzyme, UniProt Q9RUD6 1-238)
chain: MLGSMLAIIGAMDEEIELLLGELQGREDLTLPGATLHRGVLDGVPVLLTRGGIGKVNAALTTAHLLGQGATSVIFTGVAGGVHPDLRVGDIVVSTDLVQHDVDVTALGYDLGTLPGEPATWTADARLRALAVAAAGDVGGVRVIEGRVASGDQFIASREGVGRLWKNFGAACAEMEGAAVAQVCAKAGVPFVVIRSVSDTADHDAQVDYRTFMPLVARHAKQVVRGMLERLSGAAEAN
B7: enoyl-CoA hydratase, putative (DR_0114), endogenous (enzyme, UniProt Q9RY37 1-257)
chain: MTYQSIRLTQRPLSQDGTTQGGTVATLTLAAKMGSMGPAFWQEFPQALSELGDARVLIVRGEQVFSAGLDVKSNGAAIVPALGKPDAFKAVVDEMHAVTEGLAALPMPVIAAVHGWCIGAGLELIAGADLRLCSQDARFSLPEVKLGITADLGGLQRLPHLIGRGRTAHLALTGEAIDAATAERWGLVTEVLPDQDALFARAEALAEHLAALPAKALEGTKRALSDGLPHAESLAAAVRWNAEHMTVEALQAGMKKG
B8: organic hydroperoxide reductase (DR_1857), endogenous (enzyme, UniProt Q9RTA8 1-139)
chain: MANVYTAEATATGGRAGTTRSSDDRLNLDLSVPAEMGGDGGPGTNPEQLFAAGYAACFQGALGVVSRRQKIDVPADSTITARVGLQKAGLAFALDVELEGHFPGLSREQAEGLMHAAHEVCPYSAATRNNVDVRLKVRE
B9: hypothetical protein (DR_2481), endogenous (protein, UniProt Q9RRK8 1-153)
chain: MPRPFLTVLRNSGGMDEQEMLTALRELFPRAEVTEAMNAFFWFAEGDERKLMPFLTLVTTDEHDRASRLSREGAYRLNFSLTPAEYASRFGPLPKARADWGVVDTGFDYAAPDRLMPHPIYAPLGWACIVRPGRESFEALVPLLRAAYERALT
B10: oxidoreductase (DR_1890), endogenous (enzyme, UniProt Q9RT75 1-327)
chain: MCPSCAATFLSPILLGMTHGTPAQAPNTQTSNAQSPNAAASGTFLIGGELEVNRLGYGAMRVTGDGVWGDPADREGSLATLRALPGLGVNLIDTADSYGPAVSEELIREALHPYPGLVVATKGGLTRTGPNVWPPCGRPEYLIQQAQISRRRLGVERIDLWQLHRIDPQVPRDEQFGAIRQLLDDGVIRFVGLSEVNVEEIEAARQVFPVATVQNLYNLTNRKSEAVLDYCGREGIGFLPWYPLASGKLAAEGSVLTETAARLGAAPAQVALAWVLRRSPVMLPIPGTSKVKHLEENVAAASLTLTDEDFRALDEAGRAEWEAGQQK
B11: nicotinamide-nucleotide adenylyltransferase (DR_2428), endogenous (enzyme, UniProt Q9RRR0 1-345)
chain: MTAPHDPALASPAPPIPSRAYGVYIGRFEPPHQAHLLVMLEALERVQTLIVVIGSARSARTTKNPWTAHERQDVIEAMLAEAGADPQRLRFVHVRDFLYDEAHWLADVRAGVEAHTGGSRDVALVGHIKDESSYYLRSFPDWEFLPTHVVSPLNATDVRRAYFEDRLSDVRGMVPPAVHAFLEGFQRTPEYAELQAEFLALRSAVAPAPATRLTVGAVVSGAGQLLAVRRAERPGRGLLTLPGDEPGPQETLLACAMRAVRQQTGLDTGAVLGAVRAQAIFDAPGRSQRGRIVAYVFHFALGEDALTAQPAGNAAAWLPLSEALEHPEGWFEDEAEIVAHFLAKV
B12: Nudix family protein (DR_1776), endogenous (enzyme, UniProt Q9RTI8 1-175)
chain: MPPLGVDVWGEWGVRLPGMTDIRLPLGGLKFSVRVALLCVRNGELLVQTSEANAPEPFFFLPGGALSTDEDAATCARREWEEETGLLCGPLRLVAVVENFFGPPEKRQHEIGFYFRLEEVPAELPHGAFSVLDNTDTGFEWVRLDELGARPVYPLLVRDLLSVPVGEVRHLVIRS
B13: putative sensory transduction regulator (DR_1245), endogenous (protein, UniProt Q9RUY5 1-165)
chain: MRPAFTSQEENTMETALLTLDTLAKYLQEKEVQLDIEENGGQRFIRMGWRFEMGDAAVLVSVNDGPNNTSRLEITCVTQKTYADRRAEVAMMLNDRNRERAFARSIDQEGNVWLEYVGFYPTLAEMPQETFDTLFGGVLMHFQDDYAALEGYVPQEGMQIQQPQA
B14: Nudix family protein (DR_0876), endogenous (enzyme, UniProt Q9RVZ4 1-157)
chain: MNLSRTLPIKRAAHVYLVRGEELLLVEERMDDGSIFYGLPGGKAQPSETLADAAVRQVLVETGLHVTNLEFVSLLEGELLTGTRNECFANFARFTAAFHGELDPTDPEVVGVKWVPFEQVEGLVRYGPPPECEERNPLIWLPTRDFIAGKARAYYPI
B15: glucose-6-phosphate isomerase (DR_1742), endogenous (enzyme, UniProt Q9RTL8 1-541)
chain: MSRLTDLPAWQALEDHYYELQGTHLRELFAADPERGEKMNAEGAGLYLDYSKHRVTDETLRLLRELAQATGVEARRDAMFRGEKINVTEGRAVLHTALRAPRDAVIEVDGKNVVPEVHEVLDRMATFADAVRSGEWLGYTGKPIKNIVNIGIGGSDLGPVMAYEALKHYAQRDLTVRFVSNVDGTDLTEKTRDLDPEVTLFIVSSKTFTTQETMTNARSARKWLLGSLKDDAAVTRHFVAVSTNAEEVQKFGIDTANMFGFWDWVGGRYSMDSAIGLSLMVAVGPEHFREMLAGFHDMDEHFRTAPAEQNLPMLMGLLGVWYGDFFGAESLAVLPYDQYLASFPAYLQQLDMESNGKHVTLGGEPVDYQTGPIVWGQAGTNGQHAFYQLIHQGTKLIPCDFIGFCQTLNPLPPHHDLLMANVFAQTEALAFGKTLEQVLADGVAPEVAPHRVFEGNRPTSTILADRLTPRTLGALIALYEHKVFVQGAVWDINSFDQWGVELGKVLAKKIDGELQSEGEPELQHDSSTNALIRRYRARRQG
B16: acyl-CoA thioester hydrolase (DR_2298), endogenous (enzyme, UniProt Q9RS29 1-165)
chain: MRRAPTLPGMTASSRPRPEEVYEALDWSRALRHRIQMRYADLDTMGHLNNAVYVQYFETARVLVWEDLGIPPHLDRSVIAHQEIDYRREVRWGQDVWVEALIERLGNTSWTTVCRMVADGQPCAYSRTVQVRVGEGGLRPQPLEPELRELMSRLLVPGQDSPNPA
B17: signal transduction response regulator (DR_1418), endogenous (protein, UniProt Q9RUG8 1-134)
chain: MAVMAYTILVADDEPAIRTMLEVILSADGHEIVAVPDGRAALAYLQSHTPDALLLDVKMPYMDGFEICSRVKRIKRLRGCAVLLLSTVDDDQTRDQAKLVGADDIVVKPVSGKLLRGRVNQLIEARRGGSLYPL
B18: radical SAM superfamily protein (DR_1298), endogenous (protein, UniProt Q9RUT4 1-522)
chain: MTEALEQPLRRILSYWRNEIKPLLDAETGTLFKQAPIRVTLAFPNRYSVGMASLGYQVIYRMFNQEEGVACERAFLPDDVDAFERTGQALPTVESGRAAGDCELFSISVSFELDLTNIIRLIDVAGMNPLREERDETDPVVMIGGPLTSSNPYPLTPFADIIIIGDGEQIVPVVSEALRESSSREDFYDLIDGVPGVFLPARHVHEPTWATAPKELLPAYSQIVTPHSELSNMFLVEAQRGCPRPCTFCLARTMYGPNRNNQAQELLDVIPDWVEKVGLVGAALSDFPHTKFVGKTLTERGVKLGVSSIRADTVDAELAEILKAGGLRTFTVASDAPSERLRRWLKKGITTEDLLKTAQISRDLGFSGLKVYMMIGLGPENDDDITELISFTKELAGINRIALGISPFVPKRHTPHFADPFAGVQTIEKRLKRIQKELRTTAELRNVSAKWAWVESVIARGGPEVGMAAYQIYRNESIGAWKKALDEVGWQDDFEANTPSIGLPPGQYESKEVSAHAQGLAV

biological target: T1, AbxC (atypical BrxC; DR_1832), C-terminal His x 6 tag (Deinococcus radiodurans); assay: affinity purification with mass spectrometry; AbxC immobilised on CNBr-activated Sepharose 4B; 10 mg D. radiodurans cell lysate, overnight at 4 °C; washed with 100 mM Tris pH 8.0, 0.5 M NaCl; eluted with 10 mM DTT; SDS-PAGE bands, in-gel trypsin, nLC-MS-MS; only the target purified

binding	Binder
binds	B1
binds	B2
binds	B3
binds	B4
binds	B5
binds	B6
binds	B7
binds	B8
binds	B9
binds	B10
binds	B11
binds	B12
binds	B13
binds	B14
binds	B15
binds	B16
binds	B17
binds	B18
